# US20230147468A1, “RECOMBINANT PEPTIDE TO TREAT FIRE BLIGHT” (INNATE IMMUNITY LLC, priority 2020, published 2023)
# Not every detail of the peptide structures is certain; ends, links or a residue may be inferred. No end group written: not given here.
# Tested on: Erwinia amylovora
# Experiment: Detached leaf (leaf dip) assay on infected apple leaves, qPCR
sequence,measurement,setting,value
KRIVQRIKDFLRGPGRKRIVQRIKDFLR [28P-2],clearance of Erwinia amylovora,"20 mM peptide, infected leaves of apple varieties Jonathan and Red Delicious dipped 4 hours, qPCR",100%
same,Ct values with bacteria specific primers (P29 gene),"leaf samples upon treatment versus water, higher Ct means lower bacterial load",increased
